Values quoted from earlier work, collected in publication PMC6162288, “On-chip spatiotemporal electrophysiological analysis of human stem cell derived cardiomyocytes enables quantitative assessment of proarrhythmia in drug development” (Scientific Reports, 2018).

Key:
[1] = roughly the same for both drugs; ref Table 1; cited from earlier work
[2] = unbound therapeutic plasma concentration; cited from earlier work

CCN(CC)CC(=O)Nc1c(C)cccc1C [Lidocaine, lidocaine]
plasma protein-binding rate [1]: 60–80%
Unbound [2]: Lidocaine 1,804–7,732[67] hERG: n.d. Nav1.5: 42,000–108,000[68] Cav1.2: n.d. nM
